Earlier results on 68 sequences are cited in paper PMC10363480 (Plant Communications, 2023).

In this data set the test system is mitochondria or chloroplast of Chlamydomonas reinhardtii. The conditions noted are these: native Chlamydomonas reinhardtii targeting peptide (Type Cr mTP / Cr cTP); localisation as annotated in the data set, not a Venus construct tested here; cited from earlier work.

As to MAMLLKSRVSAGVSRPSRATVRVSA [cTPCHL13], the Localisation result was “Chloroplast”. Consider MQRSTELVGAFQRAGAALASPAASRQ [mTPCHL34], for which the Localisation result is “Mitochondria”. For “MALSMIRKSAAAPVRRAAAAPVVVRGRRVITF [mTPCHL2]”, the Localisation result was “Mitochondria”. Consider MLRGQRSSPVLRAGHRFFASA [mTPCHL8], for which the Localisation result was “Mitochondria”. “MLAHTNLTSSGASTVRPAHKRFHGRVSVVPRA [cTPCHL27]”: the Localisation entry was “Chloroplast”. For “MAVAMRSSTGLRATAARRQMPLGLGRVSTVRVCAADTKKAQVISPVNGD [cTPCHL5]”, the Localisation result is given as “Chloroplast”. “MRRQAVTCLRGLWRAGSASQEVANQAGASSFALQGLLAQTERGLRTSVDAKDAKIAPLSAMPWSLQAARS [mTPCHL10]”: the Localisation result is on record as “Mitochondria”. “MQTTLKQQRASGRVSARQPFRSAAVARPRRSTVRVQA [cTPCHL33]”: the Localisation result is recorded as “Chloroplast”. With MRSLKQILRIGEASSLGLRAF [mTPCHL33], the Localisation result is “Mitochondria”. Take “MLSMLGRKGQAMCLRSSRQVPSTRASIARLLAQTPRPNVRAN [mTPCHL9]”: the Localisation entry is given as “Mitochondria”. For “MALSSAANVVRSAVLQHLRVTVTSSLQSSSLPTFTNIISRGF [mTPCHL1]”, the Localisation entry is “Mitochondria”. For “MNRLGALSGLLARAARTCSRRWATAASGVPAELSAVGIVGQEFAAQARSLHTSLTTCQ [mTPCHL21]”, the Localisation entry is “Mitochondria”. On to MMSLRAASRKQELPSLLLAQART [mTPCHL24], for which the Localisation result is “Mitochondria”. In the case of “MAALMQKSALSRPACSTRSSRRAVVVRAAADRKLWA [cTPCHL32]”, the Localisation result is listed as “Chloroplast”. As for “MLSRALLLAGRLAATGQQQAASTSSRAVQPLGSLLQRCNF [mTPCHL22]”, the Localisation result is reported as “Mitochondria”.

Regarding MQALRRAVSTAMPGFRR [mTPCHL30], the Localisation result is listed as “Mitochondria”. Consider MLRNAARRLMAVGQRGISTSAMTM [mTPCHL3], for which the Localisation result is recorded as “Mitochondria”. Turning to “MALRNAASFLGKSLAGAAELGFSAAKTAGGEALTNAFVTDGVRH [mTPCHL27]”, the Localisation entry was “Mitochondria”. On to “MQALASHRTLATPARPRALGCASLPFRPIGAQAMRRPAREGAVTVHARSGGYSAPGGGRGYSSTPGIVDRVLAALPY [cTPCHL4]”, for which the Localisation result was “Chloroplast”. For MRLAAQRSRGLLAPGARFLRTSAASA [mTPCHL26], the Localisation entry was “Mitochondria”. Regarding MWEEECKNMQASKKRSS [cTPCHL7], the Localisation result is listed as “Chloroplast”.

Consider MQTMRVAFRPAATSRSTVVTRA [cTPCHL10], for which the Localisation entry is on record as “Chloroplast”. For the sequence MQRTVQGISQLARALSSAHAVAGQRCFA [mTPCHL15], the Localisation entry is on record as “Mitochondria”.

Take “MALRLFGRRAGQLGSSLAQATRAAAVATGELSASCSELFSRQSSVASSSHVREELAAFGVADARFRGLLHMRGLQTSALAM [mTPCHL13]”: the Localisation entry is “Mitochondria”.

Regarding MLSSVRLAALRAGKTNSVFQAVRAFA [mTPCHL19], the Localisation result is “Mitochondria”.

With “MAFALSFSRKALQVSAKATGKKGTGKTAAKQ [cTPCHL26]”, the Localisation entry is given as “Chloroplast”.

On to “MALCMQTRSVGAVRRTSAVRSAPFRGSRMVVRAT [cTPCHL3]”, for which the Localisation result was “Chloroplast”. In the case of MLSTRTRASAAPASRRSRSTVVSVRA [cTPCHL17], the Localisation result is given as “Chloroplast”. In the case of “MSSATRNVLSMLPALGRVGAQQAAGAAASLLFTRGY [mTPCHL6]”, the Localisation entry is recorded as “Mitochondria”. For MALTMKRSGVAARSASSRKSVVTCVA [cTPCHL15], the Localisation entry is “Chloroplast”. Take “MSMCIARGSVRGCARPVVAQHRPARSRVVSIAC [cTPCHL28]”: the Localisation entry is “Chloroplast”.

In the case of “MQSLASRPCVLRAQRPFTAKRSSVVRVRA [cTPCHL21]”, the Localisation entry is “Chloroplast”.

Take “MALLAPTTRCLSRPASSSRAAVAVPRLPIRARNVRVF [cTPCHL34]”: the Localisation entry is listed as “Chloroplast”.

Consider “MALSMRTLSARTAAPRGFSGRRVAAVSNGSRVTM [cTPCHL29]”, for which the Localisation entry is recorded as “Chloroplast”. For “MLRKGAQAVLQAERAGPQQTCAAAQTAFTRQF [mTPCHL17]”, the Localisation entry is listed as “Mitochondria”. For MQTLSVKSTRASVVPRRGRATTVAVKA [cTPCHL20], the Localisation entry is listed as “Chloroplast”. Consider “MALAAAAARRAVADGVPGLIYSLRWSRLGLHSTSAAW [mTPCHL12]”, for which the Localisation result is reported as “Mitochondria”. As to “MPRGQGKRLAQLLGAQLKQYAAEVRGISTAGGASRGGARGPASPSSLEQQTRQV [mTPCHL7]”, the Localisation result is given as “Mitochondria”. With MLKRVGQSLVPFARAGLTQTAESFRG [mTPCHL20], the Localisation result was “Mitochondria”. Regarding “MMLTQGRAFAAQRPAVQQRRMAVRANVARVPQVN [cTPCHL31]”, the Localisation entry is recorded as “Chloroplast”. With “MSSTATMPGQRSAMKAAGAQSRRAVKVMA [cTPCHL22]”, the Localisation result is given as “Chloroplast”. Turning to “MRLLVACALLALLQLSAAVRLPAAIEQAVGRQLL [cTPCHL30]”, the Localisation entry is given as “Chloroplast”. As for MALSMIAQRRAGAFSARQAPRAVRAQ [cTPCHL16], the Localisation result is listed as “Chloroplast”.

For “MRSAAVRVLGAQWAGVGAQEAGSRAARAF [mTPCHL16]”, the Localisation entry is “Mitochondria”. In the case of MASGLLRSLGVLSRNCAGSVQEGAVRAF [mTPCHL25], the Localisation result is listed as “Mitochondria”.

Take “MQVSFARSTVSRARAGISGRTSRRTHVAVSN [cTPCHL25]”: the Localisation result is on record as “Chloroplast”. Consider “MAPQTSPMVSAALATMQPKQEQQPAVPALSSALNTGILGKMVAA [mTPCHL32]”, for which the Localisation entry is recorded as “Mitochondria”. With MIAAKSQVALGRRAPVRGQRVVAA [cTPCHL12], the Localisation entry is “Chloroplast”. Regarding “MQTLASRPSLRASARVAPRRAPRVAVVTKA [cTPCHL24]”, the Localisation result is reported as “Chloroplast”. For MALMMKSSASLKAVSAGRSRRAVVVRA [cTPCHL18], the Localisation result is listed as “Chloroplast”.

Turning to MMLKASPAARAAARPAARNVRMM [cTPCHL11], the Localisation result is “Chloroplast”. For the sequence “MQTKAFTSARPQRAAALKAQRTSSVTVRA [cTPCHL23]”, the Localisation entry is listed as “Chloroplast”. On to MQRSILSALLPRLPLGVREF [mTPCHL11], for which the Localisation entry is reported as “Mitochondria”. For “MQRTGGLVSQLAGAQLTGALQELKTGVLLAF [mTPCHL23]”, the Localisation result is reported as “Mitochondria”. Take “MLARAACLLARSAEQAQLPQIMVRTFAAAAA [mTPCHL28]”: the Localisation entry is “Mitochondria”. Consider “MSSRNVATALRMFATLGRSQAGEASAMMGTGSALLAQRAAALGGASAVNKGCSCRCGRVACMGACMPMRH [mTPCHL29]”, for which the Localisation result is “Mitochondria”. Consider MQMQQQRMRFSRDARRIG [cTPCHL8], for which the Localisation entry is “Chloroplast”. Regarding “MPVLAKLLGGASKASSLQQLAGLGQRAALAATQQAGF [mTPCHL14]”, the Localisation entry is “Mitochondria”. Turning to “MRRSAARLLRGVGQAVARSGEVAEASAVKLFDINASRGLSAQTLSMLGALSHAATPLPSGFAASGIRS [mTPCHL5]”, the Localisation entry is reported as “Mitochondria”. For MQALATRPSAIRPTKAARRSSVVVRA [cTPCHL14], the Localisation result was “Chloroplast”. Take MVAVRGRRALAVRA [cTPCHL6]: the Localisation result is “Chloroplast”. As to MHSLSKALLGSGRRGQQNSALLQAVRFY [mTPCHL31], the Localisation result is on record as “Mitochondria”. For “MLANVVSRKASGLRQTPARATVAVKSVSGRRTTAAEPQTAAPVAAEDVFAYTKNLPGVTAPFEGVF [cTPCHL1]”, the Localisation entry was “Chloroplast”. Turning to “MALLMRSQTLRPVSAVASRRVSVVVRAQAGAEKSASNTTGKAKL [cTPCHL2]”, the Localisation result is “Chloroplast”.

Turning to MQAKMQTRAVSGRAAARSRVSTTKVVC [cTPCHL19], the Localisation result is “Chloroplast”.

With MLILGAQEYYALVCNAEWF [cTPCHL9], the Localisation result is on record as “Chloroplast”. With “MRSQALSLARAGLLQLSSQTGASLEGGFALSKRAEQALIRASRAF [mTPCHL18]”, the Localisation result is “Mitochondria”. As for “MVQALCSAGAARRGGRQAYSFLASLLSQQRGF [mTPCHL4]”, the Localisation result was “Mitochondria”.
